Source: patent US20100331336A1, “PROTECTIVE EFFECT OF HIGH DOSE FOLATE ON MYCARDIAL ISCHEMIA” (Universiteit Antwerpen, priority 2008, published 2010)
At least one structure is not confirmed: it was looked up by name or label, or the drawing left a doubt. No end group written: not given here.

Test system: isolated hearts of adult Wistar rats
Test: Coronary flow and vasodilator response in isolated hearts
Set-up: species or system rat
Method: Adult Wistar rats (n=28) were anesthetized (pentobarbital 60 mg/kg), and hearts rapidly excised and mounted onto a retrograde perfusion system (Emka, Paris, France) using warmed, oxygenated buffered Krebs-Henseleit solution at constant perfusion pressure (75 mmHg). Hearts were paced at 300 bpm, and maintained in an unloaded state. Coronary flow was measured by an in-line ultrasonic flow probe (Transonic Systems, Ithaca, N.Y., USA). After 30 min equilibration, vasodilators drugs (bradykinin and sodium nitroprusside) were infused by bolus injection (50 μl, 10^−8-10^−5.5 M i.c.) and coronary flow reserve assessed at constant perfusion pressure. After re-establishing baseline, hearts received FA (4.5 10^−6M i.c.) or vehicle for 30 min. Afterwards the hearts were subjected to 40-min zero coronary flow followed by 40 min of reperfusion. Coronary effluent was collected, concentrated (Sartorius-Sipan, Lier, Belgium) and analysed for lactate dehydrogenase (Vitros 950AT, O. C. D., Beerse, Belgium). Coronary vasodilator responses to the same two agents were repeated following reperfusion.

## RPPGFSPFR [Bradykinin, bradykinin]
Isolated control hearts, before IR
  maximal rise in coronary flow: 108.3±9.2%
Isolated hearts after IR, no FA
  maximal rise in coronary flow: 67.1±8.1%
